Among the data in PMC6612642 are binding values, retold here.

Chains of the proteins cited; added tags and fusions are not shown.
UniProt P23804: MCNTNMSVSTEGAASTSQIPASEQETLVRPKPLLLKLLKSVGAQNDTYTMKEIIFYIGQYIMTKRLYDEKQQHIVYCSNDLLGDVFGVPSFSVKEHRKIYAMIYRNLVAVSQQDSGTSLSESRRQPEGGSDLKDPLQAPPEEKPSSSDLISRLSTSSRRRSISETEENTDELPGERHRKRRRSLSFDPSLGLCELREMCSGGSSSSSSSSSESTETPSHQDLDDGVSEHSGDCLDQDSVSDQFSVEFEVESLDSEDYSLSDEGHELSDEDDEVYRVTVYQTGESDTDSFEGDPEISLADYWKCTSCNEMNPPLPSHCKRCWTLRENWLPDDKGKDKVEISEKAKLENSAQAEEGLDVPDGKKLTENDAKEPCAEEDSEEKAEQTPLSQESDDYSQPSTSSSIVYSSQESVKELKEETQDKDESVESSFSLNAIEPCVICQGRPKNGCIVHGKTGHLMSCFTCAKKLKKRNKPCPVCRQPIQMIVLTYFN
UniProt Q01815: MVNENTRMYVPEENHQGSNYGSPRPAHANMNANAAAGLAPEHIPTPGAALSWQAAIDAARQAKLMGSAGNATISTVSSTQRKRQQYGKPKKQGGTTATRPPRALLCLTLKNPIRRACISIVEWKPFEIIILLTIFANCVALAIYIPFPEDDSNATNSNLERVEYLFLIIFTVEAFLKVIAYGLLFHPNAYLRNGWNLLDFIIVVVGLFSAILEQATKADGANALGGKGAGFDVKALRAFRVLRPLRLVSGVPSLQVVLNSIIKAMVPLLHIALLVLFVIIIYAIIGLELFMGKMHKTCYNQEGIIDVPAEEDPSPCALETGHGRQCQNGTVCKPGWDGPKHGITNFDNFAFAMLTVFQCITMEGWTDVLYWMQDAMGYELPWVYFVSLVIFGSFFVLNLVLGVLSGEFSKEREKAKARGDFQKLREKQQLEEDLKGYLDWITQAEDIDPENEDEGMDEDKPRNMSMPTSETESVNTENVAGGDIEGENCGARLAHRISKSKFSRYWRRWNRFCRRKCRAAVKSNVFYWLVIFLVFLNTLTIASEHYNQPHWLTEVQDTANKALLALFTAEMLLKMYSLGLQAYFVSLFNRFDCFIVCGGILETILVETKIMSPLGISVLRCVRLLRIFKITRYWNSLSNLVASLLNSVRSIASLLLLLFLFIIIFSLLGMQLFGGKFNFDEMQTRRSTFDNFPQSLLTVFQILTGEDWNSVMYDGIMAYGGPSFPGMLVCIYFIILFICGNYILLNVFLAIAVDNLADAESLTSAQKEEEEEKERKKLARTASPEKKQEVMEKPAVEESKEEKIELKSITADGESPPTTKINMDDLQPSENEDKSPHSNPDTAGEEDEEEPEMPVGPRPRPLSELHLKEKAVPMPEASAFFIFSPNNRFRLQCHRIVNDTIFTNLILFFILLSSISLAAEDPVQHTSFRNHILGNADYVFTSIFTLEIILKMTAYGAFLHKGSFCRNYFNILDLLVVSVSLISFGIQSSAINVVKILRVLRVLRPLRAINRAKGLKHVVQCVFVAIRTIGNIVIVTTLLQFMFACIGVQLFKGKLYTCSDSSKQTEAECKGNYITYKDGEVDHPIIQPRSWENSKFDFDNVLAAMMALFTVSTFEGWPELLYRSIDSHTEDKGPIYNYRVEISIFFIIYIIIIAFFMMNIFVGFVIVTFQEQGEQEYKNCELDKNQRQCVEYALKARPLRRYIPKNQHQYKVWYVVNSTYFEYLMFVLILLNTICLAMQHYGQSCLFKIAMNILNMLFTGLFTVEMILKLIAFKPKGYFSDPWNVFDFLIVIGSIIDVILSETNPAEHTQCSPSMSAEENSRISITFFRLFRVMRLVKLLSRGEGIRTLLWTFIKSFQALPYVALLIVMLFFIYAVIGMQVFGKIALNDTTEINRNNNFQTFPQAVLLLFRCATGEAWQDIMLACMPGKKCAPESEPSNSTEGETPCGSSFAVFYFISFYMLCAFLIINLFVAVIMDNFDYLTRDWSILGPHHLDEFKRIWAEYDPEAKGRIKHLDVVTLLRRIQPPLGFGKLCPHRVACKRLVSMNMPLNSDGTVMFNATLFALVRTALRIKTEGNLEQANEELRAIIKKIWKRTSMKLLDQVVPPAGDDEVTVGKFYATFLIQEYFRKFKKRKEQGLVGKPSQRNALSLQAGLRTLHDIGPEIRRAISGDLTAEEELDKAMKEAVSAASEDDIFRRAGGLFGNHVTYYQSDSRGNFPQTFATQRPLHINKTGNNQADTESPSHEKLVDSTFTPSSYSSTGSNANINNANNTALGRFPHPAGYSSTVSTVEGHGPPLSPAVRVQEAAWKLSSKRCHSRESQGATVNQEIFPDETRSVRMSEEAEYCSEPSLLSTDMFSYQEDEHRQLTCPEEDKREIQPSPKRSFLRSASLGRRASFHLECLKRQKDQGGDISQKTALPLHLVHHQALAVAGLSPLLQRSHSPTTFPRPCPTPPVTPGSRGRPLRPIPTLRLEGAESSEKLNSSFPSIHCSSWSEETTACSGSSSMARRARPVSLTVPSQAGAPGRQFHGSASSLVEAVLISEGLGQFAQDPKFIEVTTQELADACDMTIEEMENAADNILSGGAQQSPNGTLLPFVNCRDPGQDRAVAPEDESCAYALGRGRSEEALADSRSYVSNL
UniProt Q9WUD1: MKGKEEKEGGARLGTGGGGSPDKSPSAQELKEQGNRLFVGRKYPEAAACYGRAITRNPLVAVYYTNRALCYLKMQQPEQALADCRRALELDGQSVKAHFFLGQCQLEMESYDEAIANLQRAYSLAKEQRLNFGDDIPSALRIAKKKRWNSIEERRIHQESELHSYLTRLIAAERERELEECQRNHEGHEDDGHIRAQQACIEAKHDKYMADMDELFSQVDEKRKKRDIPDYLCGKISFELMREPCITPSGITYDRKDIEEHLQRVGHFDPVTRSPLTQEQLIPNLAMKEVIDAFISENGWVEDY
UniProt P19785: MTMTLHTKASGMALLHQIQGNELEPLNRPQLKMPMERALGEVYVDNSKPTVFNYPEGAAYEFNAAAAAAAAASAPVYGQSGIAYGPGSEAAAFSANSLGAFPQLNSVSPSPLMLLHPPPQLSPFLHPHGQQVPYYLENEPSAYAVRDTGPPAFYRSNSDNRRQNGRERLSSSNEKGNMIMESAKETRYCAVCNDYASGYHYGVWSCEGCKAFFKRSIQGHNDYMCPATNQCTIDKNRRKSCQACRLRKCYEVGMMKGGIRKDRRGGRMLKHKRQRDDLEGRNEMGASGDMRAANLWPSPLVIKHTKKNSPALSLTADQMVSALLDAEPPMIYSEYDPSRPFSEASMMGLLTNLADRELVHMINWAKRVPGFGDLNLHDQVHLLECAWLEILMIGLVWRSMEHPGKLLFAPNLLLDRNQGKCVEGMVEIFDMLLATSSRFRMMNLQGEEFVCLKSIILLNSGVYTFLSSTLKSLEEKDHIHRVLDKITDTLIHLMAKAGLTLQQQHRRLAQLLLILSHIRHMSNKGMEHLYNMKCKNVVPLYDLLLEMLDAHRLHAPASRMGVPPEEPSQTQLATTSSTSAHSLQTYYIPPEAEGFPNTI

No constants are given. Whether binding was seen depends on the method and setting. Binding seen in cells or lysates may run through a third protein. Some results given as binding are weak or reduced against the parent protein; the word gives no strength.

Experiment [1] deals with E3 ligase Mdm2 (double minute 2 protein) (mouse (endogenous in HT22 and in mouse hippocampus)) (UniProt P23804). The experiment in a line: co-IP; hippocampal extracts of OVX APP/PS1 mice, immunoprecipitated by Mdm2 antibody, protein A agarose overnight at 4°C; mice with or without PPT treatment.
The target is the same in experiment [2]. The experiment in a line: co-IP; HT22 cell extracts (0.5 mg) pre-cleared with protein A agarose, antibody 1 hr, protein A agarose overnight at 4°C; control IgG; cells with or without PPT (Figure 3b).
Experiment [3] concerns the target Cav1.2, pore-forming subunit of L-type voltage-gated calcium channel (LTCC) (mouse (endogenous in HT22 and in mouse hippocampus)) (UniProt Q01815). Described as above.
In experiment [4] the target is CHIP (STIP1 homology and U-Box-containing protein 1, STUB1) (UniProt Q9WUD1). The experiment is described as above.

In the case of “Estrogen receptor α (from UniProt P19785 1-599)”, the binding result in experiment [1] and in experiment [2] was “binds” throughout.

On to “E3 ligase Mdm2 (double minute 2 protein) (from UniProt P23804 1-489) (enzyme)”, for which the binding result in experiment [3] is “binds”.

With “Cav1.2, pore-forming subunit of L-type voltage-gated calcium channel (LTCC) (from UniProt Q01815 1-2139)”, the binding result in experiment [1] was “binds”; in experiment [4], “no binding”; in experiment [2], “binds”.
